Measurements from the supplement of paper PMC10849652.
This is one part of the list.

Protein sequences, listed by entry. Tags and fused reporters are not part of them. Lines headed by an entry give the natural chain unless they say otherwise; changes in a name come on top.
UniProt O00429, whole entry, looked up: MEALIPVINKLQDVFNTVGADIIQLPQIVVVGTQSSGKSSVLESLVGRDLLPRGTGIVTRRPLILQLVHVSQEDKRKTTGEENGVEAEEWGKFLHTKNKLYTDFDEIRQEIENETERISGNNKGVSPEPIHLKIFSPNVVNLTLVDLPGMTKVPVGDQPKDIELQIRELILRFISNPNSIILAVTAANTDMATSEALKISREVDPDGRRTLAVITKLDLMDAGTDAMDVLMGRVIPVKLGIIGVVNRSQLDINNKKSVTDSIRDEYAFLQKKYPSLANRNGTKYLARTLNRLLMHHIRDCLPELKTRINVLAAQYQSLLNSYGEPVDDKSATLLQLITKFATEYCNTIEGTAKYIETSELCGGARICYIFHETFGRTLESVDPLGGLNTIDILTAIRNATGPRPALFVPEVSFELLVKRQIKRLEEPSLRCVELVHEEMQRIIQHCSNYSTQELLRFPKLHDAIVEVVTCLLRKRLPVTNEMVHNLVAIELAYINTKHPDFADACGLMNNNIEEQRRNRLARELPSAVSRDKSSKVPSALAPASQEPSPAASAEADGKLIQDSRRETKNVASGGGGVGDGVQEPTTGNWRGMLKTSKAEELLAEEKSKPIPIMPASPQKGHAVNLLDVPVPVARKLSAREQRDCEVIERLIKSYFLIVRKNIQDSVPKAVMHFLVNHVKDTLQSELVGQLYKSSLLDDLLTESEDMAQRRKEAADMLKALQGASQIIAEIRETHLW
UniProt Q9P265: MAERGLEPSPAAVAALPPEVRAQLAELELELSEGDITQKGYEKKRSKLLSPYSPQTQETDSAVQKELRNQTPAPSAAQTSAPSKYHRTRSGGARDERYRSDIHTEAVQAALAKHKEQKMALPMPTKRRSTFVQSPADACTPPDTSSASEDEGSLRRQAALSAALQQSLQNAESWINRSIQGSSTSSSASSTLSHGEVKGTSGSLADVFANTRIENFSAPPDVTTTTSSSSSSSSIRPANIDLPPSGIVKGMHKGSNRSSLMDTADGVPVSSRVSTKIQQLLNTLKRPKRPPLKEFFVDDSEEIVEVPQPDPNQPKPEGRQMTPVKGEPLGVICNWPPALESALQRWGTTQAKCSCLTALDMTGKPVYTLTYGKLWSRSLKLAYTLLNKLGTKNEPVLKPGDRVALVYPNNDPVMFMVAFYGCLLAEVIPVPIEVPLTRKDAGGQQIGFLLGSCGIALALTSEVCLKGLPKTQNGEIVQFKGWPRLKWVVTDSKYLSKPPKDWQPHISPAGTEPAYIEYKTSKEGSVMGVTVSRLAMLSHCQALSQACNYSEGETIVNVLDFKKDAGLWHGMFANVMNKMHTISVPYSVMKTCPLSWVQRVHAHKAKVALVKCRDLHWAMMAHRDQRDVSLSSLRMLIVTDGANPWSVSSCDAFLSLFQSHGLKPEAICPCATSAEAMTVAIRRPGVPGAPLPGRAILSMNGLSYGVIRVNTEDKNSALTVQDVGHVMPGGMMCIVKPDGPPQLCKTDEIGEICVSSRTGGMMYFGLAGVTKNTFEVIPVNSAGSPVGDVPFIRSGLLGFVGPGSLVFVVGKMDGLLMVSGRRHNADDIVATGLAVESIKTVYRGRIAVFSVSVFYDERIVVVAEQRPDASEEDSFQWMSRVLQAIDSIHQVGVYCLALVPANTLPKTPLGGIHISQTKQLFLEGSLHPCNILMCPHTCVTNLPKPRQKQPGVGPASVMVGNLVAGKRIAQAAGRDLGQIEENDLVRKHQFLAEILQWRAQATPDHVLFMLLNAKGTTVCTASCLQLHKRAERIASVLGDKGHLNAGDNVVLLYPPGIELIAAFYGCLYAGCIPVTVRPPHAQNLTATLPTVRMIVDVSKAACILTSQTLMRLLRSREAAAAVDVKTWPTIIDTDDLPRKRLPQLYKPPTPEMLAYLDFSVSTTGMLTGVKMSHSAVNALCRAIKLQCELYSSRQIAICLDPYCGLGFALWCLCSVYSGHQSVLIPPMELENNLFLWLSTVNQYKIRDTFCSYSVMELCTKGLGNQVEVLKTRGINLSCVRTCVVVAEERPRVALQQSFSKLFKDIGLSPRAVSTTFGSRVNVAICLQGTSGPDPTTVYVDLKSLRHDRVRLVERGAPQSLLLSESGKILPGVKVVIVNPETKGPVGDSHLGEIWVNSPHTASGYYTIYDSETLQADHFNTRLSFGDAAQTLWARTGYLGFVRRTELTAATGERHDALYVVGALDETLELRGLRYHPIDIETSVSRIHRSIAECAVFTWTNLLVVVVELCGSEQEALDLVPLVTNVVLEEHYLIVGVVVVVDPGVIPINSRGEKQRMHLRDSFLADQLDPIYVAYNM
UniProt Q92620: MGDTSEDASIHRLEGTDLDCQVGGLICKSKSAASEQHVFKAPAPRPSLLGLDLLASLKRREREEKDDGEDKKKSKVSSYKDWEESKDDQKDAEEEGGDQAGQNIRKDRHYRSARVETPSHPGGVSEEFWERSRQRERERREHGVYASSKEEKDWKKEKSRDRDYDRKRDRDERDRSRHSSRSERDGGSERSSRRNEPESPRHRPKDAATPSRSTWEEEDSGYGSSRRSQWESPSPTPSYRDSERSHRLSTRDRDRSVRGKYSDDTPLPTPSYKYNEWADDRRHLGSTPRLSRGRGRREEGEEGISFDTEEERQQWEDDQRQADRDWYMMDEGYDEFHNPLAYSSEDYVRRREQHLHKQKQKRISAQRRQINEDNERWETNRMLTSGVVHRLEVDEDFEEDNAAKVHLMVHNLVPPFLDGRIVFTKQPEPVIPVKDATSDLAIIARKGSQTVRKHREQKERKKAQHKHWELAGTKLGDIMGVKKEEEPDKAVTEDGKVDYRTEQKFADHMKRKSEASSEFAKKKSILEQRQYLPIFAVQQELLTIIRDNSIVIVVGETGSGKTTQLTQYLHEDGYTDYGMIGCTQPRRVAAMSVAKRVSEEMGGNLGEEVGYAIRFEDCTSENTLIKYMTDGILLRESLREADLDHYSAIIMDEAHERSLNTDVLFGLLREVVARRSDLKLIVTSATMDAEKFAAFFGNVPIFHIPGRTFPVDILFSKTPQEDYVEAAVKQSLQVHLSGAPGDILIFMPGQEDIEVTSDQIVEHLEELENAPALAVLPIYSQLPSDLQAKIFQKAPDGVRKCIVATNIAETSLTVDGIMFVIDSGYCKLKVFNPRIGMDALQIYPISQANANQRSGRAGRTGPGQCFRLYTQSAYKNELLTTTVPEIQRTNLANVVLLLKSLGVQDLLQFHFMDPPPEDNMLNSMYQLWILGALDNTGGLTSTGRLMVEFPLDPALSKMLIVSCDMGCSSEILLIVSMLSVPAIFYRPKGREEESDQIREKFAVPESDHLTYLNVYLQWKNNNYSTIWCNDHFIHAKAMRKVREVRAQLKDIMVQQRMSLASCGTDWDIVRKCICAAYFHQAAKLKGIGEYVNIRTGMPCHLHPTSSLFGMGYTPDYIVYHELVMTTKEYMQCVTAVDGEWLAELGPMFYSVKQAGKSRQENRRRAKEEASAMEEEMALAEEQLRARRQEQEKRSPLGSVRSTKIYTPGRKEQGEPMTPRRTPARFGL
UniProt Q99615: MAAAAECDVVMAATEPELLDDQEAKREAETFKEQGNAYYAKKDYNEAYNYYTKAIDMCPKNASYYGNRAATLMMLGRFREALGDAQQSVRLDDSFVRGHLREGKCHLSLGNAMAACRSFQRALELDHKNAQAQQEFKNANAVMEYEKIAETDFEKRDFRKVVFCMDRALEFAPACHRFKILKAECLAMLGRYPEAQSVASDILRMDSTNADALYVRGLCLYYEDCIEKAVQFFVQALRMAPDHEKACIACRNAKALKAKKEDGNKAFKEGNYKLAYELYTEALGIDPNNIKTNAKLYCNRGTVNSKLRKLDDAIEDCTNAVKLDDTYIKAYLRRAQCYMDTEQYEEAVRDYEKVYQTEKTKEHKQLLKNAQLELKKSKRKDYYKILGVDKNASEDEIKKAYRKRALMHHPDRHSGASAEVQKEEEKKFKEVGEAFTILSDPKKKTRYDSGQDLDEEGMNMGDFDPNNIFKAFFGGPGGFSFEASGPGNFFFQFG
UniProt Q9Y222: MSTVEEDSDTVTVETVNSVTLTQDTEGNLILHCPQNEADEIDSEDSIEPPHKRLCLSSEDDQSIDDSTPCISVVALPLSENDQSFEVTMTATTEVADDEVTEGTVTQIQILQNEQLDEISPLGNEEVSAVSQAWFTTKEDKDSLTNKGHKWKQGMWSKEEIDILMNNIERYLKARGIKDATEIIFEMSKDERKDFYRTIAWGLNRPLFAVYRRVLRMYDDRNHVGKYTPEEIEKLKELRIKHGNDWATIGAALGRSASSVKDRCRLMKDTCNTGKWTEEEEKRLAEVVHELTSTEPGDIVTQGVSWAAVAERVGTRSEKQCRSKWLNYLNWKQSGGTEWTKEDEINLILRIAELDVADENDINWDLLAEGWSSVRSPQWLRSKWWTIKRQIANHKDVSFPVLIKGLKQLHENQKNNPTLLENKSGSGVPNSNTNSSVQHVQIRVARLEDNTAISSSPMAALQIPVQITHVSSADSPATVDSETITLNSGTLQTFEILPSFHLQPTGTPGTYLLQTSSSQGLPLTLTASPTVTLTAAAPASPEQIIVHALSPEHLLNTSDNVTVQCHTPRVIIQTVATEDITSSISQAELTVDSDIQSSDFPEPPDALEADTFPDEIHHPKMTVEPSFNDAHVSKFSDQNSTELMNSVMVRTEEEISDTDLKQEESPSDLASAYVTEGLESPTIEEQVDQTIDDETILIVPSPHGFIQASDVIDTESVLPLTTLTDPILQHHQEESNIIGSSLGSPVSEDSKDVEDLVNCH
UniProt Q68CQ4: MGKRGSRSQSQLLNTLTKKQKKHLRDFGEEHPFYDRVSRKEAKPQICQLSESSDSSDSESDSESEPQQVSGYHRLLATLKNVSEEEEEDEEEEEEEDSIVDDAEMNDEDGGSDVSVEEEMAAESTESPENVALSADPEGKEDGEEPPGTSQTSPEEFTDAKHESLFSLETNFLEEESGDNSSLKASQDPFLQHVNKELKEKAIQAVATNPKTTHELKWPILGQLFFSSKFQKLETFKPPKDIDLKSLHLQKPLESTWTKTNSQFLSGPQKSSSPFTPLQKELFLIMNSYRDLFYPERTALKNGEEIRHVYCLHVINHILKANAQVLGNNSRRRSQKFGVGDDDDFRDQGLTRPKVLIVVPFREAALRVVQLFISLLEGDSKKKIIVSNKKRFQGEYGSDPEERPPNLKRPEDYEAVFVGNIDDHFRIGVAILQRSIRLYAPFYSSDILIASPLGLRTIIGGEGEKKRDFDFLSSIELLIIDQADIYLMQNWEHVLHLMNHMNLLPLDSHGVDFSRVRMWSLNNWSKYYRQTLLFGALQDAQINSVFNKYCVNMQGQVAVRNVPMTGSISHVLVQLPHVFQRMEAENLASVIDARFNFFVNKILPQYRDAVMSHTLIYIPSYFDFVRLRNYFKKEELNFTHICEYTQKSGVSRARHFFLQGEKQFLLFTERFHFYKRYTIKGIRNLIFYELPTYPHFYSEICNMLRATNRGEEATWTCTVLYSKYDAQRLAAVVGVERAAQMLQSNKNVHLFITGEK
UniProt Q13268: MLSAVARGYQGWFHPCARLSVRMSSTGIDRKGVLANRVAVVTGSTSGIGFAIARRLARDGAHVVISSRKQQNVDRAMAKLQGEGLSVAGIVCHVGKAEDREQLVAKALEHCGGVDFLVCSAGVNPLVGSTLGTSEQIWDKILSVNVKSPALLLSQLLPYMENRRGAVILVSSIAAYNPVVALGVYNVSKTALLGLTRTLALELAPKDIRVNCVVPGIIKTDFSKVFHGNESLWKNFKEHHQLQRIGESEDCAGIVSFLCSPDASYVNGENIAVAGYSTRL
UniProt Q9UKB3: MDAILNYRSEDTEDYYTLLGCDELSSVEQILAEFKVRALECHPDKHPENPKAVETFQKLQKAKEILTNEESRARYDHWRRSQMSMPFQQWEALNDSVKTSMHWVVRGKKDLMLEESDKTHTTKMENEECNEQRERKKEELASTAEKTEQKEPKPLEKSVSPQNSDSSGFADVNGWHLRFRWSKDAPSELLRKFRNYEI
UniProt O75911: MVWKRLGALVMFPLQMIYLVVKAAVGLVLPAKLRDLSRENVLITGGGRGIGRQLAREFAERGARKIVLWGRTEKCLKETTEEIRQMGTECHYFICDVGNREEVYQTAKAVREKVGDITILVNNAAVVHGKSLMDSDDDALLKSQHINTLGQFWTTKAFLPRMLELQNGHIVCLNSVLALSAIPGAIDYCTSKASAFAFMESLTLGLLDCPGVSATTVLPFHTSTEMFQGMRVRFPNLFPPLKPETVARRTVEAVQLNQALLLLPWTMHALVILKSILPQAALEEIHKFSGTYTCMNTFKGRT

Assays:
Assay in all cases: log2 fold change, soluble protein after heating vs DMSO (PISA); higher = thermal stabilisation; K562 lysate, 10 uM; active = over 0.2 and 3.5 SD of the protein, either way, in both replicates (recomputed)
erlotinib = compound: C#Cc1cccc(Nc2ncnc3cc(OCCOC)c(OCCOC)cc23)c1 [erlotinib]
Outline: (§1)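 Thermal stability, expressed as log-two fold change relative to solvent controls, is given from duplicates. Crude K562 extract in PBS pH 7.4 with 1 mM MgCl2, at 1 mg/mL protein, was treated with 10 μM compound for 30 min and heated in aliquots for 3 min across 48°C-58°C. After pooling, adjustment to 0.5% NP-40 at 4°C and centrifugation at 21,000xg for 90 min, supernatant protein was measured by TMTpro 16plex LC-MS/MS with channel sums equalised.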

[1] = compound: C/C(=N\NC(=O)C1=CC(=CC=C1)S(=O)(=O)N2CCOCC2)/C3=C(C=CC(=C3)Cl)O
Outline: as §1

[2] = compound: C1=CC(=CC=C1C2=NC3=C(N2)C=C(C=C3)C(=O)N)OC4=CC=C(C=C4)Cl
Outline: as §1

[3] = compound: C1=CC2=C(C=CC(=C2)/C=C\3/C(=O)NC(=NCC4=CC=CS4)S3)N=C1
Outline: as §1

[4] = compound: C1=CC2=NC=CN=C2C=C1/C=C/3\C(=O)NC(=O)S3
Outline: as §1

[5] = compound: C1=CC=C(C=C1)C2=NC(=C(N2)C3=CC=NC=C3)C4=CC(=C(C=C4)Cl)O
Outline: as §1

[6] = compound: C1=CC=C2C(=C1)C3=NNC4=CC=CC(=C43)C2=O
Outline: as §1

[7] = compound: C1CCN(C1)C(=O)NC2=CC=CC(=C2)NC3=NC=C(C(=N3)NCCC4=CN=CN4)Br
Outline: as §1

[8] = compound: C1CN(CCC1(CC2=CC=C(C=C2)Cl)N)C3=NC=NC4=C3C=CN4
Outline: as §1

IRAK-1-4 Inhibitor I = compound: C1COCCN1CCN2C3=CC=CC=C3N=C2NC(=O)C4=CC(=CC=C4)[N+](=O)[O-] [IRAK-1-4 Inhibitor I]
Outline: as §1

Measured: log2 fold change

DNMT1 isoform 2 (UniProt P26358)
inactive: erlotinib -0.03 | [1] 0.022 | [2] 0.004 | [3] -0.024 | [4] -0.014 | [5] -0.008 | [6] 0.025 | [7] 0.007 | [8] 0 | IRAK-1-4 Inhibitor I -0.009

DMXL1 (UniProt Q9Y485)
inactive: erlotinib 0.006 | [1] 0.016 | [2] -0.015 | [3] -0.017 | [4] -0.024 | [5] -0.008 | [6] -0.026 | [7] -0.013 | [8] -0.001 | IRAK-1-4 Inhibitor I 0.016

DNAH10 (UniProt Q8IVF4)
inactive: erlotinib 0.003 | [1] 0.047 | [2] -0.059 | [3] -0.053 | [4] -0.026 | [5] 0.026 | [6] -0.043 | [7] 0.012 | [8] 0.036 | IRAK-1-4 Inhibitor I 0.054

DNM1L isoform 6 (UniProt O00429)
inactive: erlotinib 0.012 | [1] 0.019 | [2] 0.019 | [3] 0.015 | [4] 0.002 | [5] -0.007 | [6] -0.034 | [7] -0.025 | [8] 0.013 | IRAK-1-4 Inhibitor I 0.007

DIP2B (UniProt Q9P265)
inactive: erlotinib -0.011 | [1] -0.006 | [2] 0.017 | [3] -0.013 | [4] 0.001 | [5] -0.008 | [6] 0.023 | [7] 0.001 | [8] -0.012 | IRAK-1-4 Inhibitor I 0.005

DNM2 (UniProt P50570)
inactive: erlotinib 0.045 | [1] -0.009 | [2] 0.049 | [3] 0.013 | [4] 0.029 | [5] 0.003 | [6] -0.049 | [7] -0.022 | [8] -0.008 | IRAK-1-4 Inhibitor I 0

DNAJA1 (UniProt P31689)
inactive: erlotinib -0.031 | [1] 0.01 | [2] -0.012 | [3] -0.001 | [4] -0.022 | [5] 0.005 | [6] 0.011 | [7] -0.019 | [8] -0.005 | IRAK-1-4 Inhibitor I 0.006

DHRS7 (UniProt Q9Y394)
inactive: erlotinib -0.014 | [1] 0.072 | [2] 0.012 | [3] 0.013 | [4] -0.011 | [5] -0.011 | [6] -0.04 | [7] -0.039 | [8] 0.019 | IRAK-1-4 Inhibitor I 0.01

DHX38 (UniProt Q92620)
inactive: erlotinib -0.031 | [1] -0.061 | [2] 0.018 | [3] 0.036 | [4] -0.032 | [5] 0.021 | [6] -0.006 | [7] -0.008 | [8] 0.026 | IRAK-1-4 Inhibitor I -0.025

DIS3L (UniProt Q8TF46)
inactive: erlotinib -0.014 | [1] -0.049 | [2] -0.065 | [3] 0.052 | [4] 0.283 | [5] 0.002 | [6] -0.004 | [7] -0.015 | [8] 0.008 | IRAK-1-4 Inhibitor I 0.041

Retrieved one by one from above, two records:
DHRS7 (UniProt Q9Y394)
inactive: erlotinib -0.014 | [1] 0.072 | [2] 0.012 | [3] 0.013 | [4] -0.011 | [5] -0.011 | [6] -0.04 | [7] -0.039 | [8] 0.019 | IRAK-1-4 Inhibitor I 0.01

DNM2 (UniProt P50570)
inactive: erlotinib 0.045 | [1] -0.009 | [2] 0.049 | [3] 0.013 | [4] 0.029 | [5] 0.003 | [6] -0.049 | [7] -0.022 | [8] -0.008 | IRAK-1-4 Inhibitor I 0

Continued:

DNAJA2 (UniProt O60884)
inactive: erlotinib 0.001 | [1] 0.012 | [2] -0.014 | [3] 0.008 | [4] -0.019 | [5] 0.013 | [6] 0.009 | [7] -0.03 | [8] -0.003 | IRAK-1-4 Inhibitor I -0.015

DNAJB1 (UniProt P25685)
inactive: erlotinib 0.013 | [1] -0.004 | [2] -0.005 | [3] 0.004 | [4] 0.025 | [5] 0.028 | [6] 0.017 | [7] 0.021 | [8] 0.035 | IRAK-1-4 Inhibitor I 0.007

DNAAF2 (UniProt Q9NVR5)
inactive: erlotinib 0.066 | [1] -0.032 | [2] -0.046 | [3] 0.026 | [4] -0.029 | [5] 0.027 | [6] -0.048 | [7] 0.029 | [8] 0.142 | IRAK-1-4 Inhibitor I 0.058

DNAJC7 (UniProt Q99615)
inactive: erlotinib -0.024 | [1] -0.036 | [2] -0.076 | [3] 0.022 | [4] 0.007 | [5] 0.026 | [6] -0.055 | [7] -0.01 | [8] -0.03 | IRAK-1-4 Inhibitor I -0.07

DOCK10 (UniProt Q96BY6)
inactive: erlotinib -0.23 | [1] -0.191 | [2] -0.03 | [3] 0.007 | [4] -0.094 | [5] -0.048 | [6] -0.034 | [7] -0.064 | [8] -0.028 | IRAK-1-4 Inhibitor I -0.017

DHRS4L1 (UniProt P0CG22)
inactive: erlotinib 0.01 | [1] 0.156 | [2] -0.05 | [3] -0.136 | [4] -0.014 | [5] -0.062 | [6] 0.01 | [7] -0.005 | [8] 0.026 | IRAK-1-4 Inhibitor I 0.018

DHX34 (UniProt Q14147)
inactive: erlotinib 0.005 | [1] -0.05 | [2] 0.042 | [3] 0.037 | [4] 0.029 | [5] 0.062 | [6] -0.071 | [7] 0.013 | [8] 0.041 | IRAK-1-4 Inhibitor I 0.088

DNAJB6 (UniProt O75190)
inactive: erlotinib -0.007 | [1] -0.012 | [2] -0.036 | [3] -0.014 | [4] 0.016 | [5] 0.02 | [6] 0.051 | [7] -0.029 | [8] 0.013 | IRAK-1-4 Inhibitor I -0.034

DNAJB12 (UniProt Q9NXW2)
inactive: erlotinib 0.049 | [1] 0.163 | [2] 0.007 | [3] -0.037 | [4] 0.033 | [5] -0.066 | [6] -0.055 | [7] 0.019 | [8] 0.069 | IRAK-1-4 Inhibitor I -0.009

DMTF1 (UniProt Q9Y222)
inactive: erlotinib -0.011 | [1] -0.021 | [2] -0.016 | [3] 0.069 | [4] 0.002 | [5] 0.048 | [6] -0.04 | [7] -0.154 | [8] 0.071 | IRAK-1-4 Inhibitor I 0.04

DNASE2 (UniProt O00115)
inactive: erlotinib -0.004 | [1] 0.053 | [2] -0.031 | [3] 0.004 | [4] -0.007 | [5] -0.038 | [6] 0.049 | [7] 0.025 | [8] -0.016 | IRAK-1-4 Inhibitor I -0.023

DIEXF (UniProt Q68CQ4)
inactive: erlotinib 0.013 | [1] -0.025 | [2] 0.084 | [3] 0.051 | [4] -0.084 | [5] -0.016 | [6] 0.005 | [7] -0.065 | [8] 0.023 | IRAK-1-4 Inhibitor I -0.048

DNPEP (UniProt Q9ULA0)
inactive: erlotinib -0.012 | [1] 0.101 | [2] 0.022 | [3] -0.012 | [4] 0.016 | [5] 0.013 | [6] -0.019 | [7] -0.009 | [8] 0.006 | IRAK-1-4 Inhibitor I 0.034

DHRS2 (UniProt Q13268)
inactive: erlotinib -0.056 | [1] 0.099 | [2] 0.027 | [3] 0.04 | [4] -0.04 | [5] 0.009 | [6] 0.013 | [7] 0.002 | [8] 0.013 | IRAK-1-4 Inhibitor I 0.002

DLAT (UniProt P10515)
inactive: erlotinib -0.016 | [1] 0.024 | [2] -0.029 | [3] -0.005 | [4] -0.01 | [5] -0.027 | [6] -0.001 | [7] 0.018 | [8] 0.003 | IRAK-1-4 Inhibitor I 0.013

DNAJC12 (UniProt Q9UKB3)
inactive: erlotinib -0.03 | [1] -0.057 | [2] 0.024 | [3] -0.013 | [4] 0 | [5] -0.005 | [6] 0.039 | [7] -0.006 | [8] -0.001 | IRAK-1-4 Inhibitor I -0.005

DNAJC17 (UniProt Q9NVM6)
inactive: erlotinib -0.011 | [1] 0.017 | [2] 0.002 | [3] -0.016 | [4] -0.016 | [5] -0.028 | [6] -0.01 | [7] -0.013 | [8] -0.007 | IRAK-1-4 Inhibitor I -0.011

DNAJC6 isoform 2 (UniProt O75061)
inactive: erlotinib 0 | [1] -0.152 | [2] 0.027 | [3] 0.002 | [4] -0.038 | [5] 0.013 | [6] 0.007 | [7] -0.064 | [8] 0.014 | IRAK-1-4 Inhibitor I -0.004

DHRS3 (UniProt O75911)
inactive: erlotinib 0.056 | [1] 0.08 | [2] 0.047 | [3] -0.008 | [4] -0.044 | [5] 0.03 | [6] -0.028 | [7] -0.007 | [8] 0.016 | IRAK-1-4 Inhibitor I 0.046

DHPS (UniProt P49366)
inactive: erlotinib -0.02 | [1] 0.005 | [2] 0.025 | [3] 0.006 | [4] -0.01 | [5] 0.003 | [6] -0.011 | [7] 0.016 | [8] 0.002 | IRAK-1-4 Inhibitor I 0.019
